Laboratory results from PubChem BioAssay AID256 (DTP/NCI, 2004).
The list shows only some results of the screen, not a fair sample: it gathers tests that were run many times, whatever their T/C, doses with no T/C, and many T/C values between a quarter and a half above the control. Further doses and runs are listed elsewhere. T/C gives the treated animals as a percentage of the vehicle group. Some entries give survivors of the animals treated and no T/C: the source holds a T/C of zero for them, seemingly a mark for toxic or unscored doses. Some doses without a T/C left all or most animals alive at the check, yet need not have been tolerated: survival well below the control is almost never listed, so the zero probably covers shortened survival too. Counts of survivors are from the toxicity check (mostly the fifth day) where no day follows; animals may have died later. Schedules are NCI's codes, read here as Q, the interval in days (D) or hours (H), X, the number of doses. For survival time, this PubChem deposit counts one and a half times the control or more as active, and values a quarter to a half above the control carry no call in these data; other NCI protocols may use other cut-offs. Some T/C values carry the count of animals alive at the toxicity check (mostly the fifth day); without a count, all were alive then.

Tested on: CD2F1 mice, L1210 leukemia ip, survival T/C
Experiment: NCI In Vivo Anticancer Drug Screen. Data for tumor model L1210 Leukemia (intraperitoneal) in CD2F1 (CDF1) mice
Settings: higher T/C = longer survival
Outline: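 Tumor-bearing mice (transplanted tumor) were split into treated and vehicle control groups, and the measured endpoint of each treated group was divided by that of its vehicle controls.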

[1] = T/C endpoint: mean survival time, dose: 300.0 mg/kg/injection, schedule: Q01DX001 (ip), vehicle: saline
[2] = T/C endpoint: mean survival time, dose: 400.0 mg/kg/injection, schedule: Q04DX003 (ip), vehicle: saline with Tween-80
[3] = T/C endpoint: mean survival time, dose: 75.0 mg/kg/injection, schedule: Q01DX001 (ip), vehicle: saline
[4] = T/C endpoint: mean survival time, dose: 150.0 mg/kg/injection, schedule: Q01DX001 (ip), vehicle: saline

C[n+]1ccc(Nc2ccc(NC(=O)c3ccc(Nc4cc[n+](C)c5ccc(N)cc45)cc3)cc2)cc1
T/C (T/C endpoint: mean survival time, dose: 1.0 mg/kg/injection, schedule: Q01DX009 (ip), vehicle: water): 142 % of control
survivor count (T/C endpoint: mean survival time, dose: 8.0 mg/kg/injection, schedule: Q01DX009 (ip), vehicle: water): 3 of 10
survivor count (T/C endpoint: mean survival time, dose: 16.0 mg/kg/injection, schedule: Q01DX009 (ip), vehicle: water): 0 of 10
survivor count (T/C endpoint: mean survival time, dose: 32.0 mg/kg/injection, schedule: Q01DX009 (ip), vehicle: water): 0 of 10
T/C (T/C endpoint: median survival time, dose: 0.5 mg/kg/injection, schedule: Q03HX024 (ip), vehicle: water): 146 % of control
T/C (T/C endpoint: median survival time, dose: 1.0 mg/kg/injection, schedule: Q01DX005 (ip), vehicle: water): 140 % of control [9 of 10 alive]
T/C (T/C endpoint: median survival time, dose: 1.0 mg/kg/injection, schedule: Q01DX009 (ip), vehicle: water): 139 % of control
T/C (T/C endpoint: median survival time, dose: 1.0 mg/kg/injection, schedule: Q03HX008 (ip), vehicle: water): 139 % of control [8 of 10 alive]
T/C (T/C endpoint: median survival time, dose: 2.0 mg/kg/injection, schedule: Q08DX002 (ip), vehicle: water): 132 % of control
T/C (T/C endpoint: median survival time, dose: 4.0 mg/kg/injection, schedule: Q04DX003 (ip), vehicle: water): 142 % of control
T/C (T/C endpoint: median survival time, dose: 8.0 mg/kg/injection, schedule: Q01DX001 (ip), vehicle: water): 127 % of control [8 of 10 alive]
survivor count (T/C endpoint: median survival time, dose: 8.0 mg/kg/injection, schedule: Q01DX005 (ip), vehicle: water): 4 of 10
survivor count (T/C endpoint: median survival time, dose: 8.0 mg/kg/injection, schedule: Q03HX008 (ip), vehicle: water): 6 of 10
survivor count (T/C endpoint: median survival time, dose: 8.0 mg/kg/injection, schedule: Q03HX016 (ip), vehicle: water): 5 of 10
survivor count (T/C endpoint: median survival time, dose: 8.0 mg/kg/injection, schedule: Q03HX024 (ip), vehicle: water): 3 of 10
survivor count (T/C endpoint: median survival time, dose: 8.0 mg/kg/injection, schedule: Q08DX002 (ip), vehicle: water): 4 of 10
survivor count (T/C endpoint: median survival time, dose: 16.0 mg/kg/injection, schedule: Q01DX001 (ip), vehicle: water): 0 of 10
survivor count (T/C endpoint: median survival time, dose: 16.0 mg/kg/injection, schedule: Q01DX005 (ip), vehicle: water): 0 of 10
survivor count (T/C endpoint: median survival time, dose: 16.0 mg/kg/injection, schedule: Q01DX009 (ip), vehicle: water): 2 of 10
survivor count (T/C endpoint: median survival time, dose: 16.0 mg/kg/injection, schedule: Q04DX003 (ip), vehicle: water): 2 of 10
survivor count (T/C endpoint: median survival time, dose: 16.0 mg/kg/injection, schedule: Q08DX002 (ip), vehicle: water): 1 of 10
survivor count (T/C endpoint: median survival time, dose: 32.0 mg/kg/injection, schedule: Q01DX001 (ip), vehicle: water): 0 of 10
T/C (T/C endpoint: median survival time, dose: 32.0 mg/kg/injection, schedule: Q01DX001 (sc), vehicle: water): 143 % of control
survivor count (T/C endpoint: median survival time, dose: 32.0 mg/kg/injection, schedule: Q04DX003 (ip), vehicle: water): 0 of 10
survivor count (T/C endpoint: median survival time, dose: 32.0 mg/kg/injection, schedule: Q08DX002 (ip), vehicle: water): 0 of 10
survivor count (T/C endpoint: median survival time, dose: 64.0 mg/kg/injection, schedule: Q01DX001 (ip), vehicle: water): 0 of 10
survivor count (T/C endpoint: median survival time, dose: 64.0 mg/kg/injection, schedule: Q04DX003 (ip), vehicle: water): 0 of 10
survivor count (T/C endpoint: median survival time, dose: 64.0 mg/kg/injection, schedule: Q08DX002 (ip), vehicle: water): 0 of 10

CN(C)CCC(=O)C(c1ccccc1)c1ccccc1
survivor count [1]: 0 of 6

CCCCCCCCC(C(=O)c1ccccc1)=C(C(F)(F)F)C(F)(F)F
survivor count (T/C endpoint: mean survival time, dose: 200.0 mg/kg/injection, schedule: Q01DX009 (ip), vehicle: saline with Tween-80): 5 of 6
survivor count (T/C endpoint: mean survival time, dose: 400.0 mg/kg/injection, schedule: Q01DX009 (ip), vehicle: saline with Tween-80): 3 of 6

CCN(C(=O)CCl)C(C)(C)C(SSSC(c1ccc(Cl)cc1)C(C)(C)N(CC)C(=O)CCl)c1ccc(Cl)cc1 (stereo not drawn)
survivor count (T/C endpoint: mean survival time, dose: 200.0 mg/kg/injection, schedule: Q01DX009 (ip), vehicle: saline): 3 of 6

NCCS/C=C/C(=O)Oc1ccc(Br)cc1
survivor count [2]: 1 of 6

O=C1OC(Cc2ccccc2)(c2ccccc2)c2ccccc21 (stereo not drawn)
survivor count [2]: 6 of 6

CC(CN(C)C)C(=O)c1ccccc1 (stereo not drawn)
survivor count (T/C endpoint: mean survival time, dose: 100.0 mg/kg/injection, schedule: Q04DX002 (ip), vehicle: saline): 3 of 3
survivor count (T/C endpoint: mean survival time, dose: 200.0 mg/kg/injection, schedule: Q04DX002 (ip), vehicle: saline): 3 of 3
survivor count (T/C endpoint: mean survival time, dose: 400.0 mg/kg/injection, schedule: Q04DX002 (ip), vehicle: saline): 0 of 3

c1ccc2c(c1)nnn1c3cnccc3nc21
survivor count (T/C endpoint: mean survival time, dose: 25.0 mg/kg/injection, schedule: Q01DX009 (ip), vehicle: saline with Tween-80): 4 of 6
survivor count (T/C endpoint: mean survival time, dose: 40.0 mg/kg/injection, schedule: Q01DX001 (ip), vehicle: saline): 0 of 6
survivor count (T/C endpoint: mean survival time, dose: 50.0 mg/kg/injection, schedule: Q01DX009 (ip), vehicle: saline with Tween-80): 0 of 6
survivor count [3]: 0 of 6
survivor count (T/C endpoint: mean survival time, dose: 80.0 mg/kg/injection, schedule: Q01DX001 (ip), vehicle: saline): 0 of 6
survivor count [4]: 0 of 6
survivor count [1]: 0 of 6

N#CCC(=O)NN
survivor count (T/C endpoint: mean survival time, dose: 300.0 mg/kg/injection, schedule: Q04DX003 (ip), vehicle: saline): 2 of 6

O=[N+]([O-])O.[Cd].c1ccncc1
survivor count [3]: 0 of 6
survivor count [4]: 0 of 6
survivor count [1]: 0 of 6
